Laboratory results: patent publication US10525115B2 (Immatics Biotechnologies GmbH, priority 2014, dated 2020)

Test system: primary AML samples
Assay: HLA class I ligandome analysis (W6/32 immunoaffinity purification, LC-MS/MS) of primary AML samples
Design: species or system human
Details: for Number of positive AMLs: AML patients (n=15); for Number of positive AMLs [rep. frequency]: representation frequency of the source protein (LiTAA) in AML patients (n=15); for rep. frequency: representation frequency in AML patients (n=15)
[1] = HLA class I ligandome, count for the HLA ligand (LiTAP) or, on protein lines, for the source protein (LiTAA)

149 (HEADKTYML; listed as Homo sapiens) [compound 149]
Number of positive AMLs [1]: 1

ZNF805
Number of positive AMLs [1]: 3 | Number of positive AMLs [rep. frequency]: [20.0%]

27 (EVGDFIQRY; listed as Homo sapiens) [compound 27]
Number of positive AMLs [1]: 4

135 (DAVNQNTKLL; listed as Homo sapiens) [compound 135]
Number of positive AMLs [1]: 1

UFD1L
Number of positive AMLs [1]: 4 | Number of positive AMLs [rep. frequency]: [26.7%]

ZKSCAN8
Number of positive AMLs [1]: 4 | Number of positive AMLs [rep. frequency]: [26.7%]

ZNF638
Number of positive AMLs [1]: 3 | Number of positive AMLs [rep. frequency]: [20.0%]

91 (GTEEAPKVFK; listed as Homo sapiens) [compound 91]
Number of positive AMLs [1]: 1

TMEM164
Number of positive AMLs [1]: 4 | Number of positive AMLs [rep. frequency]: [26.7%]

219 (IEHVFVTDV; listed as Homo sapiens) [compound 219]
Number of positive AMLs [1]: 2

136 (HHILADVSL; listed as Homo sapiens) [compound 136]
Number of positive AMLs [1]: 1

VCPIP1
Number of positive AMLs [1]: 4 | Number of positive AMLs [rep. frequency]: [26.7%]

67 (RVYNTDPLKEK; listed as Homo sapiens) [compound 67]
Number of positive AMLs [1]: 4

PIK3R2 (SVVDLINHY)
Number of positive AMLs [1]: 3 | Number of positive AMLs [rep. frequency]: [20.0%]

151 (RVMPSSFFL; listed as Homo sapiens) [compound 151]
Number of positive AMLs [1]: 1

SDAD1
Number of positive AMLs (source protein (LiTAA)): 3 | rep. frequency (source protein (LiTAA)): [20.0%]

CEP76 (VLGGKAFLEHL)
Number of positive AMLs (source protein (LiTAA)): 3 | rep. frequency (source protein (LiTAA)): [20.0%]

90 (EIIEKNFDY; listed as Homo sapiens) [compound 90]
Number of positive AMLs [1]: 3

88 (VLLSTIHEL; listed as Homo sapiens) [compound 88]
Number of positive AMLs [1]: 2

89 (KTYTKSSHLK; listed as Homo sapiens) [compound 89]
Number of positive AMLs [1]: 4

92 (KLMAIPLVF; listed as Homo sapiens) [compound 92]
Number of positive AMLs [1]: 1

216 (RMANLMGIEF; listed as Homo sapiens) [compound 216]
Number of positive AMLs [1]: 1

126 (YHADIYDKV; listed as Homo sapiens) [compound 126]
Number of positive AMLs [1]: 3

DGKZ
Number of positive AMLs [1]: 5 | Number of positive AMLs [rep. frequency]: [33.3%]

55 (DRIEVVNML; listed as Homo sapiens) [compound 55]
Number of positive AMLs [1]: 1

DMD
Number of positive AMLs [1]: 3 | Number of positive AMLs [rep. frequency]: [20.0%]

62 (ALLGHILLH; listed as Homo sapiens) [compound 62]
Number of positive AMLs [1]: 1

TOP1MT (KLQEQLAQL)
Number of positive AMLs (source protein (LiTAA)): 3 | rep. frequency (source protein (LiTAA)): [20.0%]

ERCC1
Number of positive AMLs [1]: 3 | Number of positive AMLs [rep. frequency]: [20.0%]

EMILIN2
Number of positive AMLs [1]: 4 | Number of positive AMLs [rep. frequency]: [26.7%]

125 (SQDKKIHVY; listed as Homo sapiens) [compound 125]
Number of positive AMLs [1]: 1

284 (YTVEKREGY; listed as Homo sapiens) [compound 284]
Number of positive AMLs (HLA ligand (LiTAP)): 2

220 (KESPTSVGF; listed as Homo sapiens) [compound 220]
Number of positive AMLs [1]: 1

87 (REMENYEKI; listed as Homo sapiens) [compound 87]
Number of positive AMLs [1]: 2

NBN
Number of positive AMLs [1]: 3 | Number of positive AMLs [rep. frequency]: [20.0%]

FNDC3B
Number of positive AMLs [1]: 4 | Number of positive AMLs [rep. frequency]: [26.7%]

ZNF543
Number of positive AMLs [1]: 4 | Number of positive AMLs [rep. frequency]: [26.7%]

DHX33
Number of positive AMLs (source protein (LiTAA)): 3 | rep. frequency (source protein (LiTAA)): [20.0%]

ERLIN1: HLA ligand source protein identified exclusively in the FLT3-ITD subset (AVIEAEKIAQV)
representation in FLT3-ITD subset (positive/total) (FLT3-ITD AML n=8, HLA class I, identified exclusively in this subset): 4/8 | Number of positive AMLs [1]: 4 | Number of positive AMLs [rep. frequency]: [26.7%]

150 (KFFEEVLLF; listed as Homo sapiens) [compound 150]
Number of positive AMLs [1]: 1

KIF20B
Number of positive AMLs [1]: 4 | Number of positive AMLs [rep. frequency]: [26.7%]

ITGA5
Number of positive AMLs [1]: 5 | Number of positive AMLs [rep. frequency]: [33.3%]

PRR12
Number of positive AMLs (source protein (LiTAA)): 3 | rep. frequency (source protein (LiTAA)): [20.0%]

65 (KVWPGSTAF; listed as Homo sapiens) [compound 65]
Number of positive AMLs [1]: 1

137 (YPSEKRGEL; listed as Homo sapiens) [compound 137]
Number of positive AMLs [1]: 1

KLF2
Number of positive AMLs [1]: 4 | Number of positive AMLs [rep. frequency]: [26.7%]

MARK3
Number of positive AMLs [1]: 3 | Number of positive AMLs [rep. frequency]: [20.0%]

ZNF264
Number of positive AMLs [1]: 3 | Number of positive AMLs [rep. frequency]: [20.0%]

192 (AHVIDKFLL; listed as Homo sapiens) [compound 192]
Number of positive AMLs [1]: 2

TTLL12
Number of positive AMLs [1]: 3 | Number of positive AMLs [rep. frequency]: [20.0%]

232 (YQRETPQV; listed as Homo sapiens) [compound 232]
Number of positive AMLs [1]: 1

SHANK3
Number of positive AMLs [1]: 4 | Number of positive AMLs [rep. frequency]: [26.7%]

APLP2 (SLLYKVPYV)
Number of positive AMLs [1]: 5 | Number of positive AMLs [rep. frequency]: [33.3%]

283 (KLMAMFLEY; listed as Homo sapiens) [compound 283]
Number of positive AMLs (HLA ligand (LiTAP)): 1

193 (KAGGEFLLRY; listed as Homo sapiens) [compound 193]
Number of positive AMLs [1]: 1

RHOT1
Number of positive AMLs (source protein (LiTAA)): 3 | rep. frequency (source protein (LiTAA)): [20.0%]

64 (HVAGETVAR; listed as Homo sapiens) [compound 64]
Number of positive AMLs [1]: 1

OPRL1
Number of positive AMLs [1]: 4 | Number of positive AMLs [rep. frequency]: [26.7%]

C3AR1
Number of positive AMLs [1]: 3 | Number of positive AMLs [rep. frequency]: [20.0%]

86 (KELEHLSHI; listed as Homo sapiens) [compound 86]
Number of positive AMLs [1]: 1

56 (IEAEKIAQV; listed as Homo sapiens) [compound 56]
Number of positive AMLs [1]: 1

WDR45B
Number of positive AMLs [1]: 4 | Number of positive AMLs [rep. frequency]: [26.7%]

57 (IEDLKAQIL; listed as Homo sapiens) [compound 57]
Number of positive AMLs [1]: 1

PLXND1
Number of positive AMLs [1]: 7 | Number of positive AMLs [rep. frequency]: [46.7%]

SORCS2
Number of positive AMLs (source protein (LiTAA)): 3 | rep. frequency (source protein (LiTAA)): [20.0%]

54 (AVIEAEKIAQV; listed as Homo sapiens) [compound 54]
Number of positive AMLs [1]: 2

26 (EEVGDFIQRY; listed as Homo sapiens) [compound 26]
Number of positive AMLs [1]: 1

GAA
Number of positive AMLs [1]: 4 | Number of positive AMLs [rep. frequency]: [26.7%]

TARBP1
Number of positive AMLs [1]: 3 | Number of positive AMLs [rep. frequency]: [20.0%]

28 (MKDLSLGGVL; listed as Homo sapiens) [compound 28]
Number of positive AMLs [1]: 1

63 (ALLPHLYTL; listed as Homo sapiens) [compound 63]
Number of positive AMLs [1]: 2

GOLGA7
Number of positive AMLs (source protein (LiTAA)): 3 | rep. frequency (source protein (LiTAA)): [20.0%]
